± gives the standard deviation. This is a selection; strong and weak results do not stand in their true shares. Many entries were measured with a wide error.
test system: MIWI (PIWIL1) piRISC loaded with L1MC piRNA (30 nt); experiment: pre-steady-state target cleavage rate (min^-1); MIWI and MILI are mouse PIWI proteins and EfPiwi is from a freshwater sponge; tags in brackets are library labels; higher = faster piRNA-guided slicing of the target; details: guide: L1MC piRNA 5'p-UAACUAAAUACUAUGCAAGCUGUAGGUCCU; auxiliary factor: 500 nM mouse GTSF1
Outline: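 In Cleave-'n-Seq, a transcribed, DNA-blocked target RNA library (0.1 nM) was combined with 1 nM active affinity-purified piRISC bearing one synthetic guide, with or without 500 nM GTSF1 partner protein. Reactions ran in HEPES–potassium acetate buffer at 33 °C for 0–8 or 0–960 min. Uncleaved targets were sequenced and normalised to depth and to weakly complementary targets, three trials were pooled, and k3 was capped at 0.0001 min^-1. The pre-steady-state cleavage rate was obtained by fitting a burst-and-steady-state model.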

Row | Sequence | pre-steady-state target cleavage rate
1 | UCCUGGAUGUCGAACGGUAGUAUUUAGUUA | 0.000256 ± 0.02
2 | UCCUGGAACAGCUUGCUAUGUAUUUAGUAA | 0.0313 ± 0.0087
3 | UCCUGGAUGUCGAACCAUAGUAAUUUGUUA | 0.000312 ± 0.021
4 | UCCUGGAUGUCGAACGUAUCUAUUCUAGUUA | 0.000251 ± 0.03
5 | UCCUCCUACAGCUUGCAUAGUUAAUAGAAA | 0.0486 ± 0.014
6 | UCCUGGAUGUCCUACCAUAGUAUUUAGUAA | 0.00295 ± 0.0048
7 | UCCUGGAUGUCGAACGUAAGUUAUUAGUUA | 0.000126 ± 0.029
8 | UCCUGCUACAGCUUGGAUAGUAUUUAGUUA | 1.29 ± 0.12
9 | UCCUGGAUGUCGUAGCAUAGUAUUUAGUAA | 0.00174 ± 0.0058
10 | UCCUGGAUGUCGUUGCAUAGAAUUUAGUUA | 0.001 ± 0.0063
11 | UCCUGGAUGUCGAACCAUAGUUUAUAGUUA | 0.000432 ± 0.013
12 | UCCUGGAUGUCGAACGUAAGUUUUUAGUUA | 0.000272 ± 0.019
13 | UCCUGGAUGUCGAACCAUAGUAUUUAGUA | 0.000142 ± 0.028

same assay, conditions: guide: L1MC piRNA 5'p-UAACUAAAUACUAUGCAAGCUGUAGGUCCU; auxiliary factor: none (no GTSF1)

Row | Sequence | pre-steady-state target cleavage rate
14 | UCCUGGAACAGCUUGCAUACAAUUUACAAA | 0.000278 ± 0.014
15 | UCCUGGAUGUCGAACCAUACUAUUUAGUAA | 0.000316 ± 0.012
16 | UCCUGGAUGUCGAACCAUAGUAUUUGUUA | 0.000335 ± 0.013
17 | UCCUGGAUCAGCAACCAUAGUAUUUAGUAA | 0.000367 ± 0.01
18 | UCCUGGUACAGCUUGCAAUGUAUUUUCAAA | 0.000894 ± 0.0086
19 | UCCUGGAACAGCUUGCUAUGUAUUUAGUAA | 0.00333 ± 0.002
20 | UCCUGGAUGUCGAACCAUAGUAUUAUCUUA | 0.000258 ± 0.026
21 | UCCUGCUACAGCUUGCAUAGUAUUAUCUAA | 0.0013 ± 0.0066
22 | UCCUGGAUGUCGAACCUUACUAUUUAGUUA | 0.000312 ± 0.013
23 | UCCUGGUACAGCUUGCUAUAGUAUUUAGUUA | 0.00278 ± 0.0038
24 | UCCUGGAUGUCCUUGCAUAGAAUUUAGUAA | 0.00147 ± 0.0028
25 | UCCUGGAUGUCGAACGUUAGUGUUUAGUUA | 0.000222 ± 0.023
26 | UCCUGGAUGUCCUUGCAUUGUAUUUACUUA | 0.00114 ± 0.0061
27 | UCCUGGAUGAGCAAGCAUAGUAUUUACAAA | 0.000318 ± 0.015
28 | UCCUGGAUGUCGAAGCAUAGAUAAAUCAAA [g11:g16:cont:t1A] | 0.00061 ± 0.01
29 | UCCUGGAUGUGCUUCGAUAGUAUUUAGUAA | 0.000938 ± 0.008
30 | UCCUCCUACAGCUUGCAUAGUUAAUAGAAA | 0.00114 ± 0.0059
31 | UCCUGGAUGUCCUACCAUAGUAUUUAGUAA | 0.001 ± 0.006

Row | Sequence | pre-steady-state target cleavage rate
32 | UCCUGGUACAGCUUGCAUAGUAUUUAUUA | 0.00116 ± 0.0073
33 | UCCUGCUACAGCUUGCAUAGUAUUAUGAAA | 0.00131 ± 0.0054
34 | UCCUGGAUGUCGAAGCUUAGUAUUUACUUA | 0.000338 ± 0.014
35 | UCCUGCUACAGCUUGGAUAGUAUUUAGUUA | 0.0507 ± 0.0096
36 | UCCUGGAUGUGCUUCGAUAGUAUUUAGAAA | 0.000753 ± 0.0089
37 | UCCUGGAUGUCGAACGAUAGUUUUAAGUUA | 0.000109 ± 0.056
38 | UCCUGGAUGUCGAACCAUAUAUUUAGUUA | 0.000475 ± 0.0095
39 | UCCUGGAUGUCCUAGCAUAGUAUUUAGUAA | 0.00158 ± 0.0044
40 | UCCUGGAUGUCGUAGCAUAGUAUUUAGUAA | 0.000903 ± 0.0079
41 | UCCUGGAUCAGGAAGCAUAGUAUUUAGAAA | 0.000469 ± 0.0066
42 | UCCUGGAUGUCGUUGCAUAGAAUUUAGUUA | 0.00099 ± 0.0056
43 | UCCUGGAUGUCCUUCGAUAGUAUUUAGUAA | 0.000655 ± 0.011
44 | UCCUGGUACUGCUUGCAUAGUAUUUUCAAA | 0.00177 ± 0.004
45 | UCCUGGAUGUCGAACCAUAGUUUAUAGUUA | 0.000263 ± 0.024
46 | UCCUGCUACAGCUUGCUUAGUAUUUACAAA | 0.00123 ± 0.0064
47 | UCCUGGUACAGCUUCCAUAGUAUUUAGAUA | 0.00101 ± 0.0057
48 | UCCUGGAUGUCGAACCAUAGUAUUUAGUA | 0.000494 ± 0.0075
